Source: paper doi:10.1101/2024.07.01.601633
No constants are given. Whether binding was seen depends on the method and setting. In cells and extracts the contact can be indirect. For some assays here: A result given as binding can be weak or reduced; the word gives no strength. Values belong to the molecule of their own block, whether it stands above or below them.

Protein sequences, listed by entry. Tags and fused reporters are not part of them. Lines headed by an entry give the natural chain unless they say otherwise; changes in a name come on top. Residues count along the entry.
UniProt P14314, residues 15-528: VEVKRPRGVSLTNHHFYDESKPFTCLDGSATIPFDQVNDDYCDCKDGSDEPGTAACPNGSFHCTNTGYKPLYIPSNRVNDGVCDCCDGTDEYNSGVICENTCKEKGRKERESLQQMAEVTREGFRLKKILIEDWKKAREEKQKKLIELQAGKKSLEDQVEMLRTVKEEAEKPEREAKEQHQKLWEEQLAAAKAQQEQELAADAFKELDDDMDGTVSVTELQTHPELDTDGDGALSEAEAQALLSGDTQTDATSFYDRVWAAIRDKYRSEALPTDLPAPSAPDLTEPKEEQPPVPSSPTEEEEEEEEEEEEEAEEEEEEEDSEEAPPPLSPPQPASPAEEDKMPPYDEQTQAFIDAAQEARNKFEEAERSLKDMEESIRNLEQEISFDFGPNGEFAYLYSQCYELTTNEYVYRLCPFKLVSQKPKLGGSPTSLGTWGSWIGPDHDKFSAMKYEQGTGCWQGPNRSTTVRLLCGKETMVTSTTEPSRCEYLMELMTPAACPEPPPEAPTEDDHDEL
UniProt Q14571: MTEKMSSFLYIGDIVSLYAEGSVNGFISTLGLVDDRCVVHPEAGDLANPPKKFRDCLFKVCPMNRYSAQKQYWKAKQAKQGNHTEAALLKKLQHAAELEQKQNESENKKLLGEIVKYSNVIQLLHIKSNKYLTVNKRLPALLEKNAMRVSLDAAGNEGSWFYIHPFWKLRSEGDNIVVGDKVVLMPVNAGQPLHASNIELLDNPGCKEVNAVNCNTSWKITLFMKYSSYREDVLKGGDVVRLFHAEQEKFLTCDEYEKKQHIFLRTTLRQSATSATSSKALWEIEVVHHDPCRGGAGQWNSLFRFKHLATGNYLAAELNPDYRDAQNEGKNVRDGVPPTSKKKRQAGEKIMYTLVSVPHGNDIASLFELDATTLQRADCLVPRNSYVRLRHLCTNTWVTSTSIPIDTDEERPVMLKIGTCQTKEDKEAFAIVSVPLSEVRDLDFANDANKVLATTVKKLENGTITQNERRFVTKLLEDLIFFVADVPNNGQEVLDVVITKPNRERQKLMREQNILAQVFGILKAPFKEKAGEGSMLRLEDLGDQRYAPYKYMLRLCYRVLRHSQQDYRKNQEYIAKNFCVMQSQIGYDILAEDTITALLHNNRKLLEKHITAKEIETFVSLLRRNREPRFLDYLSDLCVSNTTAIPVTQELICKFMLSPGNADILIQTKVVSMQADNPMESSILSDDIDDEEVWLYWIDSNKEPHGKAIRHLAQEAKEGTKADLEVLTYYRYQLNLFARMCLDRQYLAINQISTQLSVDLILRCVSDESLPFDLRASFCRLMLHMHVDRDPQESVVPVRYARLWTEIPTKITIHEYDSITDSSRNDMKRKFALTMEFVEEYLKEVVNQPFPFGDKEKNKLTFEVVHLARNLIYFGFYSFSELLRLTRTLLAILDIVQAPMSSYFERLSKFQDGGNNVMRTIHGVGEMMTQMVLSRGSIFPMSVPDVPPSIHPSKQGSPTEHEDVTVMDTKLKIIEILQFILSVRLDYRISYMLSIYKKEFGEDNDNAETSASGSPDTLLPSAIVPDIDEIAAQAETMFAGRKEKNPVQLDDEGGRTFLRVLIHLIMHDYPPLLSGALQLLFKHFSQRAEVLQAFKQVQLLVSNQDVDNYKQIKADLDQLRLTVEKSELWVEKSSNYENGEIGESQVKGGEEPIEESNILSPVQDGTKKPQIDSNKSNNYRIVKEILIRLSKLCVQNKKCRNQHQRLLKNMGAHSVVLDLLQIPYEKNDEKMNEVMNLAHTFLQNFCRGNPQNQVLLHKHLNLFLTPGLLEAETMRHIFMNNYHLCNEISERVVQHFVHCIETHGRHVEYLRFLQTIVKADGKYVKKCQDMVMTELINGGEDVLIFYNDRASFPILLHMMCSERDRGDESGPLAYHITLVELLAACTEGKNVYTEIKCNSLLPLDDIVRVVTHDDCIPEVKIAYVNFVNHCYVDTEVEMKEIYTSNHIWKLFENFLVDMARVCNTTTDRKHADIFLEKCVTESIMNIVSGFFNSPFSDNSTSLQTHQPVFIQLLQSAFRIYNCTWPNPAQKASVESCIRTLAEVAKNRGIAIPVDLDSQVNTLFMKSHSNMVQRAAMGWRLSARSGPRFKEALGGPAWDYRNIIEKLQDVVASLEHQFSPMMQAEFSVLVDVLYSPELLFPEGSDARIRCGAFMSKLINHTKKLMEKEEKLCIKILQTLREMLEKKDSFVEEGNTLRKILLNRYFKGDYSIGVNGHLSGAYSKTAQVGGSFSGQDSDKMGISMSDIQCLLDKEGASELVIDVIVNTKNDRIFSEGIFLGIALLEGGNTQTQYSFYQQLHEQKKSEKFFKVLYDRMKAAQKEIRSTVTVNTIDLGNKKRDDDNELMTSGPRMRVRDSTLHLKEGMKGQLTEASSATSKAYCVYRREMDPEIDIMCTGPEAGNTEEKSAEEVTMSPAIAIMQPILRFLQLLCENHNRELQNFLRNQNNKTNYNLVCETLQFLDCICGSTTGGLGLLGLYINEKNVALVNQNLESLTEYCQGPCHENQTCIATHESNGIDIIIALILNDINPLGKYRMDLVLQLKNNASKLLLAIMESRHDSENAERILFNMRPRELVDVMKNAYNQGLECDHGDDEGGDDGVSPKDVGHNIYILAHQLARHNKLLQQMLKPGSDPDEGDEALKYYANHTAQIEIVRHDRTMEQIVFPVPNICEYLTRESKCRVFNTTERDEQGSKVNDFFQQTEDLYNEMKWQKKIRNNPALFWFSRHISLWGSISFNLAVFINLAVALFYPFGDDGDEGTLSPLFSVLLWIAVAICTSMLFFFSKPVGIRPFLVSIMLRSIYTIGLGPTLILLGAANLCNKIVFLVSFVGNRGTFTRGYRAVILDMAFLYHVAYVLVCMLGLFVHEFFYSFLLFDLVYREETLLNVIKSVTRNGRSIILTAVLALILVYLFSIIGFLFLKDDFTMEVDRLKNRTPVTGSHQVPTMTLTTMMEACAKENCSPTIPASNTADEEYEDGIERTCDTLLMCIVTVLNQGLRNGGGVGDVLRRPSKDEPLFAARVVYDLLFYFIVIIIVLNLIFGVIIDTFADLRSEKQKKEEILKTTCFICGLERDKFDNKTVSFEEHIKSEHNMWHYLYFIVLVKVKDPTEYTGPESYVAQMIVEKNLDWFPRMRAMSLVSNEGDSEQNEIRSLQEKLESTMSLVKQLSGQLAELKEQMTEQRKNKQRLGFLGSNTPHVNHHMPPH
UniProt Q14573: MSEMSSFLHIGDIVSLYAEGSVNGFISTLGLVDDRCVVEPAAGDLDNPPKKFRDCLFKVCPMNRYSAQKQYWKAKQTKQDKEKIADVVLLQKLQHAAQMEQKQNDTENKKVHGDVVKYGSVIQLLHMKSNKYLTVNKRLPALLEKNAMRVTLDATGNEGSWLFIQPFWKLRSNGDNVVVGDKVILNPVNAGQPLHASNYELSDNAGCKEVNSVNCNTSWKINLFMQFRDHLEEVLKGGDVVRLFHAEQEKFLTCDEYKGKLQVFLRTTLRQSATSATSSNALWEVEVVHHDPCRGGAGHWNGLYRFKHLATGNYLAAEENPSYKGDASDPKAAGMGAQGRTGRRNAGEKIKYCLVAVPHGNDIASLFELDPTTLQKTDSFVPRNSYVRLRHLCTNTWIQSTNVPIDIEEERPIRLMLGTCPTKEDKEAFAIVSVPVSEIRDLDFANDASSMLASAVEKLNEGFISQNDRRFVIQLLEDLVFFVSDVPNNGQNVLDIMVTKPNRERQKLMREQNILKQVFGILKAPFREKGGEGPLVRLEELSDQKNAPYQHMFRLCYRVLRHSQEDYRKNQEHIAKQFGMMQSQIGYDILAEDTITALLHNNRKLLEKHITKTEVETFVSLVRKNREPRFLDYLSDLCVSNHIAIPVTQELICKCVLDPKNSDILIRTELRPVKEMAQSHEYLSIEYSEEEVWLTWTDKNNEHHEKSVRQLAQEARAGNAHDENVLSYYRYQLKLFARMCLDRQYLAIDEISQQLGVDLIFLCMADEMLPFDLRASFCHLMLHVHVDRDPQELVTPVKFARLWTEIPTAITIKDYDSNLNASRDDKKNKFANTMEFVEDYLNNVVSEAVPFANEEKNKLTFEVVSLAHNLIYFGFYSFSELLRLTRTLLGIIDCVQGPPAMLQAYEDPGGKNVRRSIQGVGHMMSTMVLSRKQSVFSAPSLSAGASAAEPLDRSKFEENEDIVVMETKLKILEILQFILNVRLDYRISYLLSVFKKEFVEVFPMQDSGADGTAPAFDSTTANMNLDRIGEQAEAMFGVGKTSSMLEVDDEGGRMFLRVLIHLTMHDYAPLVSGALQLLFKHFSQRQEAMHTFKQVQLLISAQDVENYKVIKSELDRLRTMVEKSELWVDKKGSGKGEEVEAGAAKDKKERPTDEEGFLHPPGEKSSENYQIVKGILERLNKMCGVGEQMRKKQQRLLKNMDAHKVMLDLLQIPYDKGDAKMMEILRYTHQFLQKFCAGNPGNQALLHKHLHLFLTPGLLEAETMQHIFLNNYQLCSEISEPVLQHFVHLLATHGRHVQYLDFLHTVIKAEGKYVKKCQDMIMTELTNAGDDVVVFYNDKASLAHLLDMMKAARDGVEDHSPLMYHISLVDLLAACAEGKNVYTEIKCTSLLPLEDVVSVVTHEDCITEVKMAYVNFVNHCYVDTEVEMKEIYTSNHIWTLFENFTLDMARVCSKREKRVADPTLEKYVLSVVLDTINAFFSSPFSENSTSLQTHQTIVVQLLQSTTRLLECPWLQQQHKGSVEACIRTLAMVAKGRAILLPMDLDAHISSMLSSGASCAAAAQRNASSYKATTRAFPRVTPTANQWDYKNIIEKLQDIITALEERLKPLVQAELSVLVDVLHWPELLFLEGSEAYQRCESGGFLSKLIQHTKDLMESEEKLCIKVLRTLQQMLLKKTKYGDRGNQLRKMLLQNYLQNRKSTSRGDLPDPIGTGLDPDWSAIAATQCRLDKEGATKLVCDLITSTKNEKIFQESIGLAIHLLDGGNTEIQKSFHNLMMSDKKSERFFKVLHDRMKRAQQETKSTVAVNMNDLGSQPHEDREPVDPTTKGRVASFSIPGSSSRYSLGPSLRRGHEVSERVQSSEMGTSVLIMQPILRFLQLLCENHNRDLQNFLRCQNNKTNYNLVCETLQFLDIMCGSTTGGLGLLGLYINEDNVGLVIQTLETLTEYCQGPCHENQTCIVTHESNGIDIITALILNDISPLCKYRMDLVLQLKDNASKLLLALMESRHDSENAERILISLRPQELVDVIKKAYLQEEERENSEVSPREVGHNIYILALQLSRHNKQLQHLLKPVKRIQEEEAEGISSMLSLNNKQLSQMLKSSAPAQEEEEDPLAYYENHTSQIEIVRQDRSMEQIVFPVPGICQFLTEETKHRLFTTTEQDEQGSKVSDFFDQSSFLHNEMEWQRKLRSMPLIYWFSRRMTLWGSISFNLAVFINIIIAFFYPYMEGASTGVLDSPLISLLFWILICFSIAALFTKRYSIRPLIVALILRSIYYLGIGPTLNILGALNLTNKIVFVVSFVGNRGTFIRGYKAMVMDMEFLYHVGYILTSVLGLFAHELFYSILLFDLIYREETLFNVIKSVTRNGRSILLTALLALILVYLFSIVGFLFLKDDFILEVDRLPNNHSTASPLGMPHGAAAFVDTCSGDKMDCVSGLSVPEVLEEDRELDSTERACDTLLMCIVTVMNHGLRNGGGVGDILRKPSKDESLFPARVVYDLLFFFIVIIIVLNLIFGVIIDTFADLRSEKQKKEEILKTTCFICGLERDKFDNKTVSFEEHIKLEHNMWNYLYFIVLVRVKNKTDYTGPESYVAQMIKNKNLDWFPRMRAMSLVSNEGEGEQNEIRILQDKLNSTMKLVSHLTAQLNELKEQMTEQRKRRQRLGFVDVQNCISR

Experiments:
Assay in all cases: co-IP
PRKCSH = PRKCSH (UniProt P14314)
IP3R2 C-terminus = IP3R2 C-terminus (UniProt Q14571)
[1] = molecular target: IP3R1 C-terminus (a.a. 2535–2695)
[2] = molecular target: IP3R1 N-terminus (a.a. 1–600)
IP3R3 C-terminus = IP3R3 C-terminus (UniProt Q14573)
Endophilin = molecular target: Endophilin

binding (PRKCSH): binds
Molecule: myoclonin1 DM10 domain (second of the three) (from UniProt Q5JVL4) (domain or fragment)

binding (PRKCSH): binds
Molecule: myoclonin1 DM10 domain (third of the three) (from UniProt Q5JVL4) (domain or fragment)

binding (PRKCSH): binds
Molecule: myoclonin1 DM10 domain (first of the three) (from UniProt Q5JVL4) (domain or fragment)

binding (IP3R2 C-terminus): binds
binding [1]: binds
binding [2]: no binding
binding (IP3R3 C-terminus): binds
binding (Endophilin): no binding
B1: myoclonin1 (protein, UniProt Q5JVL4 1-640)
chain: MVSNPVHGLPFLPGTSFKDSTKTAFHRSQTLSYRNGYAIVRRPTVGIGGDRLQFNQLSQAELDELASKAPVLTYGQPKQAPPADFIPAHVAFDKKVLKFDAYFQEDVPMSTEEQYRIRQVNIYYYLEDDSMSVIEPVVENSGILQGKLIKRQRLAKNDRGDHYHWKDLNRGINITIYGKTFRVVDCDQFTQVFLESQGIELNPPEKMALDPYTELRKQPLRKYVTPSDFDQLKQFLTFDKQVLRFYAIWDDTDSMYGECRTYIIHYYLMDDTVEIREVHERNDGRDPFPLLMNRQRVPKVLVENAKNFPQCVLEISDQEVLEWYTAKDFIVGKSLTILGRTFFIYDCDPFTRRYYKEKFGITDLPRIDVSKREPPPVKQELPPYNGFGLVEDSAQNCFALIPKAPKKDVIKMLVNDNKVLRYLAVLESPIPEDKDRRFVFSYFLATDMISIFEPPVRNSGIIGGKYLGRTKVVKPYSTVDNPVYYGPSDFFIGAVIEVFGHRFIILDTDEYVLKYMESNAAQYSPEALASIQNHVRKREAPAPEAESKQTEKDPGVQELEALIDTIQKQLKDHSCKDNIREAFQIYDKEASGYVDRDMFFKICESLNVPVDDSLVKELIRMCSHGEGKINYYNFVRAFSN
